## Results of single-concentration screens

Data taken from ChEMBL document CHEMBL3988442, “University of Dundee, Small-Polar-MMV Screening Library” (2021).

Mtb cholesterol medium: 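Phenotypic screen: M. tuberculosis growth, cholesterol and DPPC medium, 4 days; the read-out is not stated. Compounds at 50 µM. Higher reads as more growth inhibition (inferred: compounds with an IC50 in retests scored well above the rest). Of about 69,000 compounds tested this way, about 370 (0.54%) reached 50% or more in at least one test.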
Mtb glucose medium: 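Phenotypic screen: M. tuberculosis growth, glucose 7H9 medium, 3 days; the read-out is not stated. Concentration: 50 µM. Higher reads as more growth inhibition (inferred: compounds with an IC50 in retests scored well above the rest). Size under these conditions: about 69,000 compounds, about 760 of them at 50% or above in at least one test.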

The filed quantity is “Percent Effect” (%).
The controls that fix the scale are not given in the record; negative values are as filed.
The compounds are a random part of those screened.
Two or more numbers in one place are separate tests of the same structure; such repeats can differ widely.

SMILES | Mtb cholesterol medium | Mtb glucose medium
Cc1ncsc1-c1nnc(C2CCCN2C(=O)Cn2cccn2)o1 (stereo not given) | 8.449% & -14.88% | -14.96%
CN1CCN(CC2CCN(C(=O)CCC3CCCCC3)CC2)CC1 | -6.729% | 19.08%
COC(=O)C(CO)NC(=O)c1cn(Cc2ccccc2F)nn1 (stereo not given) | -22.19% | -1.109%
Cc1nnc2n1CCN(C(=O)c1ccnc(N(C)C)c1)C2 | -16.27% | -28.61%
CCN(Cc1ccoc1)c1ncc(S(N)(=O)=O)s1 | 13.43% | 1.215% & 3.208%
CCC(NCc1ccccn1)c1ccccc1OCC(=O)NC (stereo not given) | -13.12% | -8.589%
Cc1nnc(SC2CCc3ccccc3NC2=O)n1C (stereo not given) | -21.3% | -7.32%
Cc1cccc(-c2ccc(C(=O)N3CCN(C4CC4)CC3)c(=O)[nH]2)c1 | -29.73% | -40.28% & -11.85%
Cn1cc(Cl)cc1C(=O)N1CCN(Cc2ccsc2)CC1 | 14.45% | -1.163%
Cc1ccccc1CS(=O)(=O)Cc1nc(C2CC2)no1 | 0.5152% | 15.15%
COc1cc(C(=O)NCCc2cccc(C)c2)on1 | 36.63% | 41.35%
O=C(O)C(F)(F)F.O=C(O)C(F)(F)F.c1cnc(N2CCC3(CC2)CC(NCC2CC2)c2ccccc23)nc1 (stereo not given) | -33.98% | -29.65% & -4.459%
COc1ccc(C(=O)NS(=O)(=O)c2cccc(C#N)c2)cc1 | -2.933% | 2.932%
Cc1csc(C2(NCc3csc(C4CC4)n3)CCCC2)n1 | 3.743% | 0.8758% & 20.68%
COCc1cncc2c1CCN(Cc1cccnc1)C2 | -9.711% & 2.259% | 2.999%
CC(C)N1CCC(CN2CCn3nc(CNC(=O)N(C)C)cc3C2)CC1 | 2.607% & -16.76% | -8.085%
CC1CN(C)CCN1CC(=O)NCCOc1ccc(Cl)cc1 (stereo not given) | 5.634% | -27.39%
COc1cc(-c2cc(=O)[nH]cn2)cc(OC)c1OC | -6.654% | -3.521%
CN(C)C(=O)CN1CCn2cc(Cn3cccn3)nc2C1.O=C(O)C(F)(F)F.O=C(O)C(F)(F)F | 1.132% | -4.492%
CCNC(=O)[C@@H]1C[C@@H](N)CN1C(=O)CCc1ccc(C)c(C)c1 | -8.242% & 8.466% | -8.669%
CC(C)CNc1nc(C(=O)/N=c2\[nH]nc(C(C)(C)C)s2)cs1 | -44.47% | -50.74%
CC(C)c1nccn1CCCNC(=O)c1ccc(-c2cnn(C)c2)nc1 | -4.052% | -0.9892%
CC(C)N(C)Cc1n[nH]c2c1CCN(C(=O)c1cc[nH]n1)C2 | 2.963% | -4.531%
COCCN(C)C[C@@H]1CN(C(=O)c2cccc(C(F)(F)F)c2)C[C@@H]1CO | 13.24% | 2.093%
Cc1cc(C)cc(C(=O)NCCCNc2ncccn2)c1 | -5.352% | -2.899%
CC(=O)Nc1cnc(-n2ccnc2)nc1 | 4.398% | 2.871%
CC(Cn1cccn1)NC(=O)NCc1cccnc1OC(C)C (stereo not given) | -7.692% | -10.2%
CC(Cn1ccnc1)NC(=O)C1(c2cccc(Cl)c2)CC1 (stereo not given) | 15.62% | -29.27% & 0.09141%
Cc1cccn2c(CNC(C)CO)cnc12 (stereo not given) | -24.24% | -44.07%
Cc1nc(C(NC(=O)CN(C)C(C)C)c2ccccc2F)no1 (stereo not given) | -19.51% | 5.064% & -1.422%
CC(=O)CC(C)(C)NC(=O)CCN(C)Cc1ccc(Cl)s1 | 16.31% | 20.79%
Cc1nc(N2CCN(C(=O)c3ccccc3)CC2)c2c(n1)c(C)nn2C | -9.449% | -3.355%
O=C(CC(F)(F)F)NC(c1ccc(Cl)cc1)c1ncon1 (stereo not given) | 26.69% | 0.07677% & -12.39%
Cc1c(C)n(CC(O)CN2CCCCCC2)c2c(Cl)cccc12 (stereo not given) | -5.985% | -42.56%
COc1c(CNC2CCOc3c(Cl)cccc32)c(C(C)C)nn1C (stereo not given) | -14.23% | -43.42% & -2.843%
Cc1ccc(CCNC(=O)NCc2cccc(OC(F)F)c2)cn1 | 15.87% | 9.192%
[H][C@@]12CS(=O)(=O)C[C@]1([H])N(Cc1nccn1C)CCN2Cc1ccccc1 | -1.043% | 12.71% & -0.04704%
COc1cc(C(C)NCc2scnc2C)ccc1SC(F)F (stereo not given) | 6.943% & 12.49% | 26.28%
CC(=O)Nc1nc(SCc2ccc3c(c2)OCO3)ns1 | -1.564% | -5.052%
CC(O)CN1CCC(CNCc2ccccc2Cl)CC1 (stereo not given) | -0.6836% | -6.786%

For reference, 3 entries once more:

Result for COc1c(CNC2CCOc3c(Cl)cccc32)c(C(C)C)nn1C (stereo not given) was Mtb cholesterol medium: -14.23%; Mtb glucose medium: -43.42% & -2.843%.
Result for CCC(NCc1ccccn1)c1ccccc1OCC(=O)NC (stereo not given) was Mtb cholesterol medium: -13.12%; Mtb glucose medium: -8.589%.
Result for COc1cc(-c2cc(=O)[nH]cn2)cc(OC)c1OC was Mtb cholesterol medium: -6.654%; Mtb glucose medium: -3.521%.